According to the supplement of paper PMC12067093, “Discovery and optimisation of a covalent ligand for TRIM25 and its application to targeted protein ubiquitination” (Chemical Science, 2025):
Some of the results follow.

Sequences of proteins named here, by UniProt entry; tags and fusion partners are left off. A change or cut given only in a name is not applied to a line headed by its entry.
UniProt Q9BUQ8: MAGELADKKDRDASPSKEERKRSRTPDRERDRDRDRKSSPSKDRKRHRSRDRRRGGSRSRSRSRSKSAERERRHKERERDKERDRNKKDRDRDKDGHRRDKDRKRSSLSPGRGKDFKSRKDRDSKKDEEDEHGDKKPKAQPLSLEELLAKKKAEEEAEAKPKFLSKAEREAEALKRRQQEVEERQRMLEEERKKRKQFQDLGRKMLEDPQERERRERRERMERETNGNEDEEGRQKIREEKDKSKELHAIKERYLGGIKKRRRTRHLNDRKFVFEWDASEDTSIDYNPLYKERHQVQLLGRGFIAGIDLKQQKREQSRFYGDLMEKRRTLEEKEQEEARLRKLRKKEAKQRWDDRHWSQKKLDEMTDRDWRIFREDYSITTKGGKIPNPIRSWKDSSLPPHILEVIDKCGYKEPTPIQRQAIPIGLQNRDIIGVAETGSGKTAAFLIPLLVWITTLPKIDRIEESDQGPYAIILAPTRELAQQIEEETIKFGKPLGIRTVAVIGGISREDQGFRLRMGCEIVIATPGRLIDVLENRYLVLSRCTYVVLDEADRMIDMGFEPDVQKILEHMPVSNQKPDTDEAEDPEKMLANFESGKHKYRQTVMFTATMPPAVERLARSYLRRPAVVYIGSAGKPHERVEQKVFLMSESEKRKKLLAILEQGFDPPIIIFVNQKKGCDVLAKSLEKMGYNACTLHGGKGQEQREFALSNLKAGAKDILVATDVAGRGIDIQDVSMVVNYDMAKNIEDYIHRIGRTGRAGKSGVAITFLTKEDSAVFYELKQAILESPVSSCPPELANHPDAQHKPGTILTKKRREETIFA
UniProt Q92499: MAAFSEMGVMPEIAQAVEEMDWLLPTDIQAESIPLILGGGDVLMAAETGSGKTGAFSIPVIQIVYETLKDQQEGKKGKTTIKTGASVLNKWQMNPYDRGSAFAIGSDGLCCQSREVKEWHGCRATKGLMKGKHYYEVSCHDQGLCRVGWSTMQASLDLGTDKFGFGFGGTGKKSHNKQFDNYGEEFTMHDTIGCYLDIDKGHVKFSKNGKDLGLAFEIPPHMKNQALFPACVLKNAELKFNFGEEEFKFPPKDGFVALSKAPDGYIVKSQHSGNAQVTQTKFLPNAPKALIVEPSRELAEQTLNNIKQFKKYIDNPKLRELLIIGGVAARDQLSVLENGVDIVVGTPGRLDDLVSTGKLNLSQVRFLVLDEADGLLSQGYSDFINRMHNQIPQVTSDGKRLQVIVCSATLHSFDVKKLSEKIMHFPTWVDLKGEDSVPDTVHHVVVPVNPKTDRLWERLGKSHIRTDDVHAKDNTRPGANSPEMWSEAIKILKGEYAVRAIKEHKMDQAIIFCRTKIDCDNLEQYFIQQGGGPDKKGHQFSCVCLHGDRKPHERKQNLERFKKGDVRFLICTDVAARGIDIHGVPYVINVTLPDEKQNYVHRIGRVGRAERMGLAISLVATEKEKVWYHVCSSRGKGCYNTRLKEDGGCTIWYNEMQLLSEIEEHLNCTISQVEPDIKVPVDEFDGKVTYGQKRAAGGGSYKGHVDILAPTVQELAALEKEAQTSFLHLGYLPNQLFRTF
UniProt O00148, whole entry, looked up: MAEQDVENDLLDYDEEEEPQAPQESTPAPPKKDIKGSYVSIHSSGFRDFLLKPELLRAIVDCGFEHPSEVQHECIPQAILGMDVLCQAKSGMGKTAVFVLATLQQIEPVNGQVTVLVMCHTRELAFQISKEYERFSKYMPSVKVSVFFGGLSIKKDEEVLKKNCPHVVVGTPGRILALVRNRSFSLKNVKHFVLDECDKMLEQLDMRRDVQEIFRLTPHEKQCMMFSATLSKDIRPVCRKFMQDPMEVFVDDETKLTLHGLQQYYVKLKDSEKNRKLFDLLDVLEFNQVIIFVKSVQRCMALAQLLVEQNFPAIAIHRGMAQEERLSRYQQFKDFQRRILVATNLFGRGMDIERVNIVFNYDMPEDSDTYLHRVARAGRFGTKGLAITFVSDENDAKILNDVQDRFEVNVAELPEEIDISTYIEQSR
UniProt A2RUS2: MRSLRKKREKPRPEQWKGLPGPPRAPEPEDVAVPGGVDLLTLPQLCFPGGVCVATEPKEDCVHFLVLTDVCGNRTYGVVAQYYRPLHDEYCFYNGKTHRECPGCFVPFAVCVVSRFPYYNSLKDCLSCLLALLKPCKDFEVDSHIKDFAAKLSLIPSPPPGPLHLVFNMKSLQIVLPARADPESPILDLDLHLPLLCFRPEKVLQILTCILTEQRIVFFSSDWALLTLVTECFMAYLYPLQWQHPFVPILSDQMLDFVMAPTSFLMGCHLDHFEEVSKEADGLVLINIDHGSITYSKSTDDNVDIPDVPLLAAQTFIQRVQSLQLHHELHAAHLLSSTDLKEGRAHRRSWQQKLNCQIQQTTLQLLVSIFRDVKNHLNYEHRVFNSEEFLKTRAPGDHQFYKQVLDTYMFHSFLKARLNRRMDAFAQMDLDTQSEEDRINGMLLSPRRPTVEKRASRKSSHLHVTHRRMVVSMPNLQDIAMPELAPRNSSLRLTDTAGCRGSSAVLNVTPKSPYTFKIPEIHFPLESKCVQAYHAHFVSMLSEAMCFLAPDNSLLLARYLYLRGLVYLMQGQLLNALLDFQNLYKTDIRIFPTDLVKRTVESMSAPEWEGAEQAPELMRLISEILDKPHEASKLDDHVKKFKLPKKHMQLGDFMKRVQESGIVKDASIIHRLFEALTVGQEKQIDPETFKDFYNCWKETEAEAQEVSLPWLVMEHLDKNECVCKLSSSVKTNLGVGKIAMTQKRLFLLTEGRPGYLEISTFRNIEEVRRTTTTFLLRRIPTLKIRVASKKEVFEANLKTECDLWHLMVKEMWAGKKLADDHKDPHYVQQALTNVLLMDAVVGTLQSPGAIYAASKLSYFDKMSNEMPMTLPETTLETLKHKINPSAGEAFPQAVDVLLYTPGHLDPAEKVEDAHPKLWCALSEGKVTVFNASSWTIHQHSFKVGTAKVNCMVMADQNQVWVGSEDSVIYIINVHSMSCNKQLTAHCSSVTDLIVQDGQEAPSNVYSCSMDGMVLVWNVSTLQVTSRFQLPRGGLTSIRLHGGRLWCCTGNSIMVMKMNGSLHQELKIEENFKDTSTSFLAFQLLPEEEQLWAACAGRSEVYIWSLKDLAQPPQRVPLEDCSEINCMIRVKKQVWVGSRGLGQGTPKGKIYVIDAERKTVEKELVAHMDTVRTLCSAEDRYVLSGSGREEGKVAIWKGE
UniProt Q9UJV9: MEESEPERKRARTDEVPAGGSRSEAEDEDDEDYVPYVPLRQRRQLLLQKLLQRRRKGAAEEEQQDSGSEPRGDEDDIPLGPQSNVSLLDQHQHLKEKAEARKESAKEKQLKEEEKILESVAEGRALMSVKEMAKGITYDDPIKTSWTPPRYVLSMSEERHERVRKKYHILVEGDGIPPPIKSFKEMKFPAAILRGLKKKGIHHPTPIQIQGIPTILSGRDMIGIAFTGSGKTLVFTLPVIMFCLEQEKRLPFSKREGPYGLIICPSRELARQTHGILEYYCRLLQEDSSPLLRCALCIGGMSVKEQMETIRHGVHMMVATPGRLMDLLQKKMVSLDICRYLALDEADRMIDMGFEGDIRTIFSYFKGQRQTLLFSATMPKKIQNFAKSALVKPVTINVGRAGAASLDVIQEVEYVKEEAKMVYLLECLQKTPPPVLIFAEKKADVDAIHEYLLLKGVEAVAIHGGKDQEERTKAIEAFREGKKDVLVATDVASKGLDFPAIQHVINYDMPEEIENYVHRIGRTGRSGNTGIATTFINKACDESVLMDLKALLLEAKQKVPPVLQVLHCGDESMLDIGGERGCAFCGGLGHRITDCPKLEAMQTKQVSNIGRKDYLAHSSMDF
UniProt Q5T1V6: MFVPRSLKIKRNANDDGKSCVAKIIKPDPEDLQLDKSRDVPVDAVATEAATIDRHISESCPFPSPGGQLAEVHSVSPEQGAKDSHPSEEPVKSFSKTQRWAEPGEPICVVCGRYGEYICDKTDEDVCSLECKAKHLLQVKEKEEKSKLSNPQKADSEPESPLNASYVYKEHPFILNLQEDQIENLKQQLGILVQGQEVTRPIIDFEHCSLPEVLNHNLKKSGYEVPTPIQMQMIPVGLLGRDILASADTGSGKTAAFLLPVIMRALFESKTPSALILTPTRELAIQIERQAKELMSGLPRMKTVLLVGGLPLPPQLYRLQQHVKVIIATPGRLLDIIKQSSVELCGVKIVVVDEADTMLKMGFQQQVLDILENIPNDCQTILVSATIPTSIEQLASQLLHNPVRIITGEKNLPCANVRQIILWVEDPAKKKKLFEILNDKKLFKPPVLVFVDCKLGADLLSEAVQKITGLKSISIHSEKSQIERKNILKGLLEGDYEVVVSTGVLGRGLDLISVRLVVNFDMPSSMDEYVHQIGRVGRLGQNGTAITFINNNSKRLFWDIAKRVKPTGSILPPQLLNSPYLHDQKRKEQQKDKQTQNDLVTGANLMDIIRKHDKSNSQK
UniProt Q9H4E7, whole entry, looked up: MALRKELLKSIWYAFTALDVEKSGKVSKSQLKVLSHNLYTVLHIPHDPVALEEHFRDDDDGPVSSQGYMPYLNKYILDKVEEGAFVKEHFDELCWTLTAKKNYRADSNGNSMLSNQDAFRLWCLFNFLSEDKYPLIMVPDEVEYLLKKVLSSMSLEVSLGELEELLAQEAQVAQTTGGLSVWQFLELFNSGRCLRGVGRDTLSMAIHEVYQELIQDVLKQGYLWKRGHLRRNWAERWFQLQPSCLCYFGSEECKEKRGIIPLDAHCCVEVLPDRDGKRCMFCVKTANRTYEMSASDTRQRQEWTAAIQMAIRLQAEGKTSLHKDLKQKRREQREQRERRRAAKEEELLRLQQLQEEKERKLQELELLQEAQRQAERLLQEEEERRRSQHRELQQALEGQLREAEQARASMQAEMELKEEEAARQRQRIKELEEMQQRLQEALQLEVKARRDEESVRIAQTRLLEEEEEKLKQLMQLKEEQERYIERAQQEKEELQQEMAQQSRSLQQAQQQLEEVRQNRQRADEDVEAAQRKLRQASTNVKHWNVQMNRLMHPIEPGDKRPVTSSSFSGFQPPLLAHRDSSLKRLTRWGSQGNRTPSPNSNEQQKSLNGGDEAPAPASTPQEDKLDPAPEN
UniProt Q8N8A6: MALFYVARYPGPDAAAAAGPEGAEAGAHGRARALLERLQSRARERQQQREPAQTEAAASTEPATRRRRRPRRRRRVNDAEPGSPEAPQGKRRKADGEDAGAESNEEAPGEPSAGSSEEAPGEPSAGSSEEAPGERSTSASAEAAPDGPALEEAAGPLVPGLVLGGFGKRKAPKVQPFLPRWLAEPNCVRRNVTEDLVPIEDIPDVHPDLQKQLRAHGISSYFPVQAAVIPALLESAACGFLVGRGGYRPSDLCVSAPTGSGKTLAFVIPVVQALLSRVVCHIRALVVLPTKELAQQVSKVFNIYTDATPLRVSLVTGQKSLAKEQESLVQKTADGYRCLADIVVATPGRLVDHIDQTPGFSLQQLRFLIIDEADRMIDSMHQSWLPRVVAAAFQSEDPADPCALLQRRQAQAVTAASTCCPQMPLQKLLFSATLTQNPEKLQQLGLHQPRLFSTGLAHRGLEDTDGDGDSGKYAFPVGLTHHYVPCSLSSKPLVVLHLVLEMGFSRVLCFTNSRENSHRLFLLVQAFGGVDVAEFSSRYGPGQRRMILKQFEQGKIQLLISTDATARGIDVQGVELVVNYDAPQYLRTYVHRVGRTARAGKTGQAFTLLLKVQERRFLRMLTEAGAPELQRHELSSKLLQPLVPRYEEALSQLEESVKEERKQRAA
UniProt Q9GZR7: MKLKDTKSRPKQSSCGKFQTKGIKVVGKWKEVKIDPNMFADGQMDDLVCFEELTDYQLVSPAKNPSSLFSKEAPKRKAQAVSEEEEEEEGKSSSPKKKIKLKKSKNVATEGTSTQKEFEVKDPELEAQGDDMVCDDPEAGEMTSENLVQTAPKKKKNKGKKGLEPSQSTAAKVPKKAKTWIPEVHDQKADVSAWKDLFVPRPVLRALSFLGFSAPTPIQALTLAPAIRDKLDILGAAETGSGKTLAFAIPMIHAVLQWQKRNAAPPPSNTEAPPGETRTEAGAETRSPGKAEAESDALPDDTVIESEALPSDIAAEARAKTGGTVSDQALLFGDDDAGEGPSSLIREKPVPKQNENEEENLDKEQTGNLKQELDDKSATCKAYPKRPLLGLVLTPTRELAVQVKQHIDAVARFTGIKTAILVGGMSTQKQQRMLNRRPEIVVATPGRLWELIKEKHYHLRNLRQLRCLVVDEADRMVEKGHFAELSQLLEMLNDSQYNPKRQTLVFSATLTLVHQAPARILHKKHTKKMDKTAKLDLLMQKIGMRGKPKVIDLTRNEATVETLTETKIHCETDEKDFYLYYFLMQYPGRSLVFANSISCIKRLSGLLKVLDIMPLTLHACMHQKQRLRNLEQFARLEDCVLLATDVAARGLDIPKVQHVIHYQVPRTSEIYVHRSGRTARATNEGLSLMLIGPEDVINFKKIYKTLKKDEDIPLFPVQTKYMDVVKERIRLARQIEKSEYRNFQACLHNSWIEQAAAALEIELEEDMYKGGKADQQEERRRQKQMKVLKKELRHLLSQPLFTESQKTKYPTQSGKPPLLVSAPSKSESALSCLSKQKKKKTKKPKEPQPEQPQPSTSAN

Compound: Cc1cc(ccc1-c1ccccc1)C(=O)N1CCCN(CC1)C(=O)CCl [compound 10]
Assay: probe-labelled cysteine peptide fold change vs DMSO (competition) (log2 fold change); higher = less target engagement (more negative = stronger competition)
Settings: THP-1, incubation time: 4 h
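Also: competitive profiling in live THP-1 cells: cysteine peptides tagged with an iodoacetamide desthiobiotin (IA-DTB) probe, intensity after compound treatment relative to DMSO-treated cells.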

Target | probe-labelled cysteine peptide fold change (10 µM) | probe-labelled cysteine peptide fold change (50 µM)
DDX23_Q9BUQ8_677_GCDVLAK (UniProt Q9BUQ8) | -0.169 | 0.00824
DDX1_Q92499_519_TKIDCDNLEQYFIQQGGGPDKK (UniProt Q92499) | -0.155 | -0.62
DDX39A_O00148_223_QCMMFSATLSK (UniProt O00148) | -0.0178 | -0.165
DENND3_A2RUS2_1174_TLCSAEDRYVLSGSGR (UniProt A2RUS2) | 0.153 | -0.121
DDX60L_Q5H9U9_1671_DFAFNIQAISDSLSELCENKR (UniProt Q5H9U9) | 0.277 | 0.512
DDX23_Q9BUQ8_519_MGCEIVIATPGR (UniProt Q9BUQ8) | 0.214 | 0.193
DHRS4L2_Q6PKH6_86_KQQNVDQAVATLQGEGLSVTGTVCHVGK (UniProt Q6PKH6) | 0.254 | -0.306
DDX50_Q9BQ39_242_LSVACFYGGTSYQSQINHIR (UniProt Q9BQ39) | 0.333 | -0.294
DDX41_Q9UJV9_294_CALCIGGMSVK (UniProt Q9UJV9) | 0.0677 | -0.281
DGCR8_Q8WYQ5_657_SEYVMACGK (UniProt Q8WYQ5) | -0.101 | -0.266
DDX28_Q9NUL7_360_LHCIMPHVK (UniProt Q9NUL7) | -0.266 | -0.556
DDX41_Q9UJV9_281_QTHGILEYYCR (UniProt Q9UJV9) | 0.0444 | 0.149
DDX42_Q86XP3_382_ALQEGAEIVVCTPGR (UniProt Q86XP3) | 0.218 | 0.244
DHCR24_Q15392_474_SVHGFQMLYADCYMNREEFWEMFDGSLYHK (UniProt Q15392) | 0.0843 | 0.142
DDX39B_Q13838_300_CIALAQLLVEQNFPAIAIHR (UniProt Q13838) | 0.445 | 0.435
DDX59_Q5T1V6_345_QSSVELCGVK (UniProt Q5T1V6) | 0.0664 | 9.67e-05
DGAT2_Q96PD7_312_YIGFAPCIFHGR (UniProt Q96PD7) | 0.0105 | 0.746
DDX59_Q5T1V6_453_LFKPPVLVFVDCK (UniProt Q5T1V6) | -0.33 | -1.68
DEF6_Q9H4E7_246+253_WFQLQPSCLCYFGSEECK (UniProt Q9H4E7) | 0.124 | -0.45
DHCR24_Q15392_499_LGCQDAFPEVYDK (UniProt Q15392) | -0.106 | -0.0376
DDX27_Q96GQ7_357_LIDHLHNCPSFHLSSIEVLILDEADR (UniProt Q96GQ7) | 0.376 | 0.122

Target | probe-labelled cysteine peptide fold change (10 µM) | probe-labelled cysteine peptide fold change (50 µM)
DFFA_O00273_47_ACDILAIDK (UniProt O00273) | 0.148 | -0.197
DEF6_Q9H4E7_266+267_GIIPLDAHCCVEVLPDRDGKR (UniProt Q9H4E7) | 0.0112 | -0.772
DDX60L_Q5H9U9_502_CHVDEQSR (UniProt Q5H9U9) | -0.375 | -0.943
DELE1_Q14154_286_AQYNAGLCHEHGR (UniProt Q14154) | 0.308 | 0.837
DDX10_Q13206_196_INNINILVCTPGR (UniProt Q13206) | 0.0926 | 0.195
DGCR8_Q8WYQ5_514_SEVCILHEYMQR (UniProt Q8WYQ5) | -0.0725 | -0.257
DDX51_Q8N8A6_338_CLADIVVATPGR (UniProt Q8N8A6) | -0.00575 | -0.0889
DENND3_A2RUS2_197_ADPESPILDLDLHLPLLCFRPEK (UniProt A2RUS2) | 0.139 | 0.293
DDX23_Q9BUQ8_692_MGYNACTLHGGK (UniProt Q9BUQ8) | -0.103 | -0.228
DENND1C_Q8IV53_349_AQALLFGGYRDALVCSPGQPVTFSEEVFLAQKPGAPLQAFHR (UniProt Q8IV53) | 0.0694 | -0.0849
DDI2_Q5TDH0_34_ALCELESGIPAAESQIVYAERPLTDNHR (UniProt Q5TDH0) | 0.0206 | -0.327
DDX1_Q92499_406_LQVIVCSATLHSFDVK (UniProt Q92499) | 0.0985 | 0.138
DDX58_O95786_278_TFVSLLICEHHLK (UniProt O95786) | 0.188 | -0.0657
DDX1_Q92499_544_GHQFSCVCLHGDR (UniProt Q92499) | 0.0844 | 0.0146
DDX41_Q9UJV9_568_VPPVLQVLHCGDESMLDIGGER (UniProt Q9UJV9) | -0.0594 | -0.148
DDX39A_O00148_164_KNCPHVVVGTPGR (UniProt O00148) | -0.0734 | -0.265
DDX54_Q8TDD1_73_KLGPGRPLPTFPTSECTSDVEPDTR (UniProt Q8TDD1) | -0.208 | -0.387
DDX24_Q9GZR7_467_CLVVDEADR (UniProt Q9GZR7) | 0.0794 | 0.324
DEF6_Q9H4E7_279_CMFCVK (UniProt Q9H4E7) | 0.118 | -0.332
DDX46_Q7L014_501_RGAEIIVCTPGR (UniProt Q7L014) | 0.189 | 0.403

13 consecutive records from above, for reference:
Target | probe-labelled cysteine peptide fold change (10 µM) | probe-labelled cysteine peptide fold change (50 µM)
DGCR8_Q8WYQ5_514_SEVCILHEYMQR (UniProt Q8WYQ5) | -0.0725 | -0.257
DDX51_Q8N8A6_338_CLADIVVATPGR (UniProt Q8N8A6) | -0.00575 | -0.0889
DENND3_A2RUS2_197_ADPESPILDLDLHLPLLCFRPEK (UniProt A2RUS2) | 0.139 | 0.293
DDX23_Q9BUQ8_692_MGYNACTLHGGK (UniProt Q9BUQ8) | -0.103 | -0.228
DENND1C_Q8IV53_349_AQALLFGGYRDALVCSPGQPVTFSEEVFLAQKPGAPLQAFHR (UniProt Q8IV53) | 0.0694 | -0.0849
DDI2_Q5TDH0_34_ALCELESGIPAAESQIVYAERPLTDNHR (UniProt Q5TDH0) | 0.0206 | -0.327
DDX1_Q92499_406_LQVIVCSATLHSFDVK (UniProt Q92499) | 0.0985 | 0.138
DDX58_O95786_278_TFVSLLICEHHLK (UniProt O95786) | 0.188 | -0.0657
DDX1_Q92499_544_GHQFSCVCLHGDR (UniProt Q92499) | 0.0844 | 0.0146
DDX41_Q9UJV9_568_VPPVLQVLHCGDESMLDIGGER (UniProt Q9UJV9) | -0.0594 | -0.148
DDX39A_O00148_164_KNCPHVVVGTPGR (UniProt O00148) | -0.0734 | -0.265
DDX54_Q8TDD1_73_KLGPGRPLPTFPTSECTSDVEPDTR (UniProt Q8TDD1) | -0.208 | -0.387
DDX24_Q9GZR7_467_CLVVDEADR (UniProt Q9GZR7) | 0.0794 | 0.324
